Laboratory results taken from US8765777B2, “Compositions and methods of use for tyrosine kinase inhibitors to treat pathogenic infection” (priority 2008, dated 2014).

What was measured:
[1] = system: VV extracellular enveloped virus (EEV); type: cell-based, Vaccinia virus; details: 10 μM
[2] = system: VV
[3] = system: Polyoma virus; test: Cytopathic effects of Polyoma virus on 3T3 cells; type: cell-based; details: 10 μM, 3T3 monolayers infected for 5 days

Cc1ccc(NC(=O)c2ccc(CN3CCN(C)CC3)cc2)cc1Nc1nccc(-c2cccnc2)n1 [STI-571, 4-[(4-Methyl-1-piperazinyl)methyl]-N-[4-methyl-3-[[4-(3-pyridinyl)-2-pyrimidinyl]amino]-phenyl]benzamide methanesulfonate]
fold reduction in plaque number in the presence or absence of mAb 2D5 [1]: same fold reduction
VV load in mice ([2]; 100 mg/kg/day, continuous release osmotic pumps, FIG. 4): reduces VV load
viral load lower than in untreated mice ([2]; real-time PCR, Experiment 6): 6 orders of magnitude
extent of cell killing by Polyoma virus [3]: reduced the extent of killing
